Data published in PubChem BioAssay (NCATS).
The inconclusive results got no clear call from the source; some entries with a clear call stand among them for comparison. Where the call is inconclusive, the potency comes from a doubtful curve fit. Activity calls are given as the source filed them. Unless noted, the call rests on the fitted dose curve; in most records, active means well fitted curve in the direction sought with a large enough effect; inconclusive means small, poorly fitted or top-dose-only effect, or another doubt; inactive means no such curve, though single readings can be large; an effect the other way counts as inactive or inconclusive.

Legend:
[1] = Cytotoxicity counterscreen for NFkB agonists and antagonists (AID 624476)
[2] = qHTS Assay for Identification of Small Molecule Antagonists for NFkB Signaling Pathway. (AID 624479; calls by dose curve;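 further: pathway stimulated with TNF alpha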)
[3] = qHTS of pediatric cancer cell lines to identify multiple opportunities for drug repurposing: Primary screen for TC32 cells (AID 1347089); further: nearly all actives have a fitted effect of over 60% in size
In short: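 Luminescent CellTiter-Glo read-out of metabolically active TC32 cells after 48 h compound exposure. Primary: MIPE 11-point, 0.78 nM–46 µM; NPC 8-point, 0.59 nM–46 µM. Confirmatory: 11-point dilutions.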

[4] = qHTS of pediatric cancer cell lines to identify multiple opportunities for drug repurposing: Primary screen for MG 63 (6-TG R) cells (AID 1347105); conditions: MG 63 (6-TG R) viability, CellTiter-Glo, 48 h; activity change, negative = cytotoxic: at 46 µM (top of the series) unless noted; further: nearly all actives have a fitted effect of over 50% in size
In short: (§1)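 Quantitative HTS format: each compound titrated (MIPE 11 points from 0.78 nM, NPC 8 points from 0.59 nM) onto cells plated 5 hours earlier. After 48 h at 37 degrees C, CellTiter-Glo luminescence was recorded.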

[5] = Quantitative High-Throughput drug screen in 47 multiple myeloma cell lines against the NCATS MIPE library collection: OPM2_DSMZ cell viability assay (AID 1919872); further: nearly all actives have a fitted effect of over 30% in size
In short: (§2)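 Luminescent ATP measurement with CellTiter-Glo gives viability, scaled between DMSO-only wells (100%) and media-only wells (0%). Cells, 500 per well, faced library compounds for 48 hours at 37C.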

[6] = Quantitative High-Throughput drug screen in 47 multiple myeloma cell lines against the NCATS MIPE library collection: KMS28BM_JCRB cell viability assay (AID 1919874); further: nearly all actives have a fitted effect of over 35% in size
In short: (§3)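 Readout: median RLU from CellTiter-Glo after 5 min at room temperature. Preceding step was 48 h drug treatment of 500 cells/well at 37 °C, 5% CO2, with DMSO-only and media-only control wells.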

[7] = qHTS for identification of novel therapeutic agents for treatment of microphthalmiaassociated transcription factor (MiT) renal cell carcinoma (RCC) (AID 1963991; calls by dose curve); conditions: TFE3-RCC UOK109 viability, CellTiter-Glo, 48 h; active = Z-AUC below -0.8 in all three lines
In short: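 UOK109/UOK124/UOK145 (TFE3 fusions, three partners); 500 cells/well; MIPE v4.0, 1912 cpds, 11 conc.; 48 h, 37 C; CellTiter-Glo, 15 min RT; lum. Norm.: DMSO 100%, empty 0%.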

MCC-26 = assay: qHTS assay to identify novel small-molecules to repurpose for Merkel cell carcinoma treatment (AID 1296009); conditions: MCC and control cell lines, CellTiter-Glo viability, 72 h; series mostly up to 46 µM; further: nearly all actives have a fitted effect of over 60% in size
In short: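 Luminescence from CellTiter-Glo, read 10 min after addition at room temperature, reported viability following a 72 hr, 37 degree celsius treatment with NPC or MIPE compounds in titration; values normalized to plate controls.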

[8] = qHTS of pediatric cancer cell lines to identify multiple opportunities for drug repurposing: Primary screen for SJ-GBM2 cells (AID 1347091)
In short: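 Eight- or eleven-point concentration series, 48 h treatment at 37 degrees C in growth media; readout CellTiter-Glo luminescence. Potency and efficacy were taken from the concentration-response curves.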

[9] = qHTS of pediatric cancer cell lines to identify multiple opportunities for drug repurposing: Primary screen for NB-EBc1 cells (AID 1347095)
In short: as §1

[10] = qHTS of pediatric cancer cell lines to identify multiple opportunities for drug repurposing: Primary screen for SK-N-SH cells (AID 1347098); conditions: SK-N-SH viability, CellTiter-Glo luminescence, 48 h; activity change, negative = cytotoxic: at 57 µM (top of the series); further: nearly all actives have a fitted effect of over 65% in size
In short: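 Cells (500-1,000/well) rested 5 h, then received compounds for 48 h; metabolically active cells were measured by CellTiter-Glo luminescence. Final concentrations spanned up to 46 µM (MIPE, 11-point) or 0.59 nM-46 µM (NPC, 8-point) in primary screens, 11-point in follow-ups.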

[11] = Quantitative High-Throughput drug screen in 47 multiple myeloma cell lines against the NCATS MIPE library collection: H1112_PLB cell viability assay (AID 1918967; further: nearly all actives have a fitted effect of over 30% in size)
In short: as §2

[12] = Quantitative High-Throughput drug screen in 47 multiple myeloma cell lines against the NCATS MIPE library collection: MMM1_PLB cell viability assay (AID 1918976); further: nearly all actives have a fitted effect of over 35% in size
In short: as §3

[13] = Quantitative High-Throughput drug screen in 47 multiple myeloma cell lines against the NCATS MIPE library collection: OCIMY7_PLB cell viability assay (AID 1918987); conditions: OCI-MY7 myeloma viability, CellTiter-Glo ATP, 48 h; viability (% of DMSO): at 45.8 µM (top of the series); further: nearly all actives have a fitted effect of over 65% in size
In short: as §3

[14] = qHTS of pediatric cancer cell lines to identify multiple opportunities for drug repurposing: Primary screen for NB1643 cells (AID 1347099); further: nearly all actives have a fitted effect of over 50% in size
In short: as §1

[15] = Quantitative High-Throughput drug screen in 47 multiple myeloma cell lines against the NCATS MIPE library collection: KMS27_JCRB cell viability assay (AID 1918970); conditions: KMS27 myeloma cells, CellTiter-Glo ATP viability, 48 h; viability (% of DMSO): at 45.8 µM (top of the series); further: nearly all actives have a fitted effect of over 30% in size
In short: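 Myeloma cells (500 per well) were exposed to MIPE 4.0 compounds for 48 h at 37 °C, 5% CO2; viability was read as ATP luminescence with CellTiter-Glo, normalized to DMSO-only (100%) and media-only (0%) wells.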

[16] = qHTS to identify inhibitors of the type 1 interferon - major histocompatibility complex class I in skeletal muscle: primary screen against the NCATS Mechanism Interrogation Plate v5.0 (MIPE) Libary (AID 1347411); conditions: iHSKM cells + IFN-b, HiBiT-tagged MHC-I luminescence, 24 h; series mostly up to 45.8 µM; further: nearly all actives have a fitted effect of over 65% in size
In short: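 IFN-beta-driven (4 ng/ml) HLA-B-HiBit expression in CRISPR-tagged C25cl48 myoblasts; compounds 11-pt, 1:3, max 46 uM, 24 hr exposure; lytic NanoLuc complementation luminescence.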

[17] = qHTS of pediatric cancer cell lines to identify multiple opportunities for drug repurposing: Primary screen for control Hh wild type fibroblast cells (AID 1347106); further: nearly all actives have a fitted effect of over 55% in size
In short: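 Cells (500-1,000/well) in growth media were settled 5 h at 37 degrees C, then given compounds for 48 h. Viability was read as CellTiter-Glo luminescence. Primary runs used MIPE at 11 points (0.78 nM-46 µM) and NPC at 8 points (0.59 nM-46 µM); follow-ups used 11 points.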

[18] = Primary qHTS for inhibitors of nuclear receptor binding SET domain protein 2 (NSD2) in an isogenic RCH-ACV NSD2 p.E1099K mutant (9B) (AID 1645876); further: nearly all actives have a fitted effect of over 70% in size
[19] = qHTS of pediatric cancer cell lines to identify multiple opportunities for drug repurposing: Primary screen for Saos-2 cells (AID 1347097); conditions: Saos-2 viability, CellTiter-Glo ATP luminescence, 48 h; activity change, negative = cytotoxic: at 46 µM (top of the series); further: nearly all actives have a fitted effect of over 40% in size
In short: as §1

Measured: Potency
Potency means the concentration at half of the fitted maximal effect.

C=C1C(=CC=C2CCC[C@]3(C)[C@@H]([C@H](C)C=C[C@H](C)C(C)C)CC[C@@H]23)C[C@@H](O)C[C@@H]1O
active: [2] 21.1 µM | [3] 11.7 µM | [4] 5.9 µM | [5] 10.5 µM | [6] 0.209 µM | [7] 0.418 µM | MCC-26 = 14.8 µM
inconclusive: [1] 33.2 µM [inhibitor, single point]

CCN(c1ccccc1)c1cc(NC)[n+](C)c(C)n1
inactive: [2] | [11]
inconclusive: [8] 33.2 µM [cytotoxic, single point] | [9] 29.6 µM [cytotoxic, single point] | [10] 27.1 µM [cytotoxic, single point] | [12] 8.33 µM [cytotoxic, partial curve, poor fit] | [13] 0.418 µM [cytotoxic, full curve, poor fit] | [6] 0.0037 µM [rising, full curve, poor fit]

N#Cc1ccc(COC[C@H]2O[C@@H](n3c(NCc4ccc(Cl)c(Cl)c4)nc4c(N)ncnc43)[C@@H](O)[C@@H]2O)cc1
active: [10] 19.2 µM | [14] 18.7 µM
inconclusive: [1] 33.2 µM [inhibitor, single point] | [2] 29.8 µM [inhibitor, single point] | [3] 10.4 µM [cytotoxic, partial curve] | [8] 5.9 µM [cytotoxic, full curve] | [9] 18.7 µM [cytotoxic, partial curve, poor fit] | [15] 8.33 µM [cytotoxic, single point] | [13] 37.2 µM [cytotoxic, partial curve, poor fit] | [5] 14.8 µM [cytotoxic, partial curve]
inactive: MCC-26

C[C@@H]1CCN(C(=O)CC#N)C[C@@H]1N(C)c1ncnc2[nH]ccc12
inconclusive: [2] 23.7 µM [inhibitor, partial curve, poor fit]

O=C(Nc1cc(C(F)(F)F)cc(C(F)(F)F)c1)c1cc(Cl)ccc1O
inconclusive: [3] 23.4 µM [cytotoxic, single point] | [16] 4.15 µM [inhibitor, full curve] | MCC-26 = 2.96 µM [inhibitor, full curve]
active: [8] 0.235 µM | [12] 0.296 µM | [7] 1.18 µM

Grouped by structure, those above with a Cl atom
N#Cc1ccc(COC[C@H]2O[C@@H](n3c(NCc4ccc(Cl)c(Cl)c4)nc4c(N)ncnc43)[C@@H](O)[C@@H]2O)cc1
active: [10] 19.2 µM | [14] 18.7 µM
inconclusive: [1] 33.2 µM [inhibitor, single point] | [2] 29.8 µM [inhibitor, single point] | [3] 10.4 µM [cytotoxic, partial curve] | [8] 5.9 µM [cytotoxic, full curve] | [9] 18.7 µM [cytotoxic, partial curve, poor fit] | [15] 8.33 µM [cytotoxic, single point] | [13] 37.2 µM [cytotoxic, partial curve, poor fit] | [5] 14.8 µM [cytotoxic, partial curve]
inactive: MCC-26

O=C(Nc1cc(C(F)(F)F)cc(C(F)(F)F)c1)c1cc(Cl)ccc1O
inconclusive: [3] 23.4 µM [cytotoxic, single point] | [16] 4.15 µM [inhibitor, full curve] | MCC-26 = 2.96 µM [inhibitor, full curve]
active: [8] 0.235 µM | [12] 0.296 µM | [7] 1.18 µM

Going on with the list:

COc1cc(C)c(Sc2cnc(NC(=O)c3ccc(CNC(C)C(C)(C)C)cc3)s2)cc1C(=O)N1CCN(C(C)=O)CC1 (stereo unspecified)
inconclusive: [1] 18.7 µM [inhibitor, partial curve, poor fit] | [17] 11.8 µM [cytotoxic, partial curve, poor fit] | [18] 23.1 µM [inhibitor, single point] | [15] 11.8 µM [cytotoxic, single point] | MCC-26 = 16.6 µM [inhibitor, partial curve]
active: [9] 0.743 µM | [11] 5.9 µM | [6] 13.2 µM

CC1(C)CNc2cc(NC(=O)c3cccnc3NCc3ccncc3)ccc21
inconclusive: [2] 26.6 µM [inhibitor, partial curve] | [8] 26.4 µM [cytotoxic, single point] | [19] 5.26 µM [cytotoxic, partial curve] | [10] 0.304 µM [cytotoxic, full curve] | [14] 11.8 µM [cytotoxic, partial curve, poor fit] | [4] 14.8 µM [cytotoxic, partial curve] | [11] 0.59 µM [cytotoxic, full curve, poor fit] | [12] 13.2 µM [cytotoxic, partial curve, poor fit] | [5] 20.9 µM [cytotoxic, partial curve]
inactive: [1]
active: [3] 26.2 µM | [13] 0.372 µM

CNC1CCN(C(Cc2cccc(-c3ccncc3)c2)C(=O)c2sc3c(F)ccc(F)c3c2Cl)CC1 (stereo unspecified)
inconclusive: [1] 33.2 µM [inhibitor, single point]

CC1(C)CCC(c2ccc(Cl)cc2)=C(CN2CCN(c3ccc(C(=O)NS(=O)(=O)c4ccc(N[C@H](CCN5CCOCC5)CSc5ccccc5)c(S(=O)(=O)C(F)(F)F)c4)cc3)CC2)C1
inconclusive: [7] 7.43 µM [falling, full curve]
active: [19] 4.18 µM | [14] 0.0093 µM | [15] 0.0148 µM | [5] 18.7 µM | [6] 0.332 µM
